Experimental data as given in paper PMC9458431.
The exact form of at least one protein or probe is not confirmed. For some assays here: Weaker means in comparison with the reference protein, sequence or condition of that experiment. For some assays here: At least one verdict was read from the data and is not stated in words by the source. For some assays here: At least one result comes from cells or an extract, where the contact may be indirect. For some assays here: Negatives hold for the conditions tested. For some assays here: Where a protein sequence is shown, tags need not be part of it. For some assays here: The direction of at least one scale is not stated here.

Chains of the proteins cited; added tags and fusions are not shown. Chains listed by the source or under a name are the forms on record and can include a tag or linker. Residues count along the entry.
UniProt P63073, 28-217: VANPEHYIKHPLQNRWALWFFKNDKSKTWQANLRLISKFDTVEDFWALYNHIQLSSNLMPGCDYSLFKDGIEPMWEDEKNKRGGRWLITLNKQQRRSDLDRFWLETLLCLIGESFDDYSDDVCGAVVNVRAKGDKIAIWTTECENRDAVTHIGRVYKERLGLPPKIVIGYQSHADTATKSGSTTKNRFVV
UniProt P06730, whole entry: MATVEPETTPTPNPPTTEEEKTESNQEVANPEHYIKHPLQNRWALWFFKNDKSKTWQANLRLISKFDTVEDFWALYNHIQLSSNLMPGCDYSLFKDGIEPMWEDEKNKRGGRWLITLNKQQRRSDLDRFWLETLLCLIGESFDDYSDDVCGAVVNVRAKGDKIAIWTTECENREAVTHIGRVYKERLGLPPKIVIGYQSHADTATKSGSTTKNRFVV
nuclear cap-binding complex (A549 lysate) (Homo sapiens (A549 cells)), one chain, as listed by the source, chain 1 of 2: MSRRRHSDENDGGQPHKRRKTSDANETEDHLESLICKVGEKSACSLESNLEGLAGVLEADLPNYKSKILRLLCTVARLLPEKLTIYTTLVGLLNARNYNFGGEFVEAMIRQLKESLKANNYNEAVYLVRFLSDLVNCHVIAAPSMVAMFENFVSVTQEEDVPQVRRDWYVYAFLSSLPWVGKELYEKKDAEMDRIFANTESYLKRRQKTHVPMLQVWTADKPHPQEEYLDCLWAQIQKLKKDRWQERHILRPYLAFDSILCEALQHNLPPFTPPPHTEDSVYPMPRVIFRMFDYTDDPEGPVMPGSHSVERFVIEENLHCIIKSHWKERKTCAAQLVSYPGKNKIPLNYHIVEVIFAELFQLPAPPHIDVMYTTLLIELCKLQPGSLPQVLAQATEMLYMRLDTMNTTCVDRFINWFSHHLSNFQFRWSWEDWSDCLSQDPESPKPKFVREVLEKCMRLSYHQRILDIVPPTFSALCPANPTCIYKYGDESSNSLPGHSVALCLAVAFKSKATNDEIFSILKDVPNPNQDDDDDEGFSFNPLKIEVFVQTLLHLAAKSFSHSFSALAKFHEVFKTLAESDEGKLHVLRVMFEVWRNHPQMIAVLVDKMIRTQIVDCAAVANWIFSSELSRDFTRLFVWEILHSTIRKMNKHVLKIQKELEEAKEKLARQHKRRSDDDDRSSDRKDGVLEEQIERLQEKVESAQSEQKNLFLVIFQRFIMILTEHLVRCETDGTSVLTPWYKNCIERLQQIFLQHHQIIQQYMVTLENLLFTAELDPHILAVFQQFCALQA
nuclear cap-binding complex (A549 lysate) (Homo sapiens (A549 cells)), one chain, as listed by the source, chain 2 of 2: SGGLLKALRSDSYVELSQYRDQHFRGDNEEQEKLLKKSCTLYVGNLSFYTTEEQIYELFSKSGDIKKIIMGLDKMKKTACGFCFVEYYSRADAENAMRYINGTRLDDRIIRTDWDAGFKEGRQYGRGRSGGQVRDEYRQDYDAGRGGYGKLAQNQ

Legend:
[1] = target: eIF4E (murine) (Mus musculus) (UniProt P63073); experiment: MST competition; settings: vs m7Gp5OC3(5)FAM, slightly destabilized vs A, recombinant protein, letters put together from the description
[2] = target: T1, Ifit1b (mouse, JAWS II lysate) (Mus musculus (JAWS II cells)) (UniProt Q64282); experiment: pull-down AP-MS; settings: pull-down: 20 mM Tris-HCl pH 7.4, 150 mM NaCl, 2 mM MgCl2, 2 mM DTT, 0.2% IGEPAL, 4 C, protein in an extract, label: biotin (pAp-biotin conjugate), letters put together from the description
T1 sequence (looked up, limits assumed): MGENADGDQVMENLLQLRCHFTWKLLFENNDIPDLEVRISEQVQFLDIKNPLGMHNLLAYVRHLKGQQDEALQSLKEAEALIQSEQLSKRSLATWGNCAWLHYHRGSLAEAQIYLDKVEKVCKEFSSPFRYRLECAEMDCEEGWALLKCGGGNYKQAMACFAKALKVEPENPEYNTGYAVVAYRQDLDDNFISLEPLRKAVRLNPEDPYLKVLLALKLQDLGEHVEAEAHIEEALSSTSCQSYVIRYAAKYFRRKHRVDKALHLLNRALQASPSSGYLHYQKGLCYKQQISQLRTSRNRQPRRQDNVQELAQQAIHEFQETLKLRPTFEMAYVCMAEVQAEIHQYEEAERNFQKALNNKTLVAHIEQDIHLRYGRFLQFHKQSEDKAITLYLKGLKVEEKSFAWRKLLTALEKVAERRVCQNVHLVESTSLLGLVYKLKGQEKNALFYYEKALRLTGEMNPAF

[3] = target: T1, Ifit1b (mouse, JAWS II lysate) (Mus musculus (JAWS II cells)); experiment: pull-down, western blot; settings: JAWS II lysate, pull-down: 20 mM Tris-HCl pH 7.4, 150 mM NaCl, 2 mM MgCl2, 2 mM DTT, 0.2% IGEPAL, 4 C, protein in an extract, label: biotin (pAp-biotin conjugate), letters put together from the description
[4] = target: T2, IFIT1 (human, A549 lysate) (UniProt P09914); experiment: pull-down, western blot; settings: A549 lysate, pull-down: 20 mM Tris-HCl pH 7.4, 150 mM NaCl, 2 mM MgCl2, 2 mM DTT, 0.2% IGEPAL, 4 C, label: biotin (pAp-biotin conjugate), letters put together from the description
T2 sequence (looked up, limits assumed): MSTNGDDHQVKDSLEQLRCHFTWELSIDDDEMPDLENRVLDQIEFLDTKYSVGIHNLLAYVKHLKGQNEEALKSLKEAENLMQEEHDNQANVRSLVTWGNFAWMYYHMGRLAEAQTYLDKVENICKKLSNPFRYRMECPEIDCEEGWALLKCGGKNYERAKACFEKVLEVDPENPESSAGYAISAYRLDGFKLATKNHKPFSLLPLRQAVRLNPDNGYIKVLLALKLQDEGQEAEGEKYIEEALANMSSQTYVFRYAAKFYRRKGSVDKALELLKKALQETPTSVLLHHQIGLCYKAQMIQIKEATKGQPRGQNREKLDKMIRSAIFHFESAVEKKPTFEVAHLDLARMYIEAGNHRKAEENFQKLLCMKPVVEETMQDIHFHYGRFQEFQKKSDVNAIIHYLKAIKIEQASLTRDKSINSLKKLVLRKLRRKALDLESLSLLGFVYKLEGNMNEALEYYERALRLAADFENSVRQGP

[5] = target: eIF4E (human, A549 lysate) (Homo sapiens (A549 cells)) (UniProt P06730); experiment: pull-down, western blot; settings: A549 lysate, pull-down: 20 mM Tris-HCl pH 7.4, 150 mM NaCl, 2 mM MgCl2, 2 mM DTT, 0.2% IGEPAL, 4 C, protein in an extract, label: biotin (pAp-biotin conjugate), letters put together from the description
[6] = system: nuclear cap-binding complex (A549 lysate) (Homo sapiens (A549 cells)); experiment: pull-down, western blot; settings: A549 lysate, pull-down: 20 mM Tris-HCl pH 7.4, 150 mM NaCl, 2 mM MgCl2, 2 mM DTT, 0.2% IGEPAL, 4 C, protein in an extract, label: biotin (pAp-biotin conjugate), letters put together from the description

“AGGGGAAGCGGGCAUGCGGCCAGCCA [cap2(m6A) RNA]”: binds more weakly ([1]; m7Gppp-m6AmpGm).
“AGGGGAAGCGGGCAUGCGGCCAGCCA [cap2-1(A) RNA-biotin]” was tested, and the binding signal (log2 ratio vs mock) ([2]; m7Gppp-ApGm) was 2.89, the binding result ([3]; m7Gppp-ApGm) was “binds” and the binding result ([4]; m7Gppp-ApGm, protein in an extract) was “binds more weakly”. “AGGGGAAGCGGGCAUGCGGCCAGCCA [cap2-1(A) RNA-biotin]”: binds ([5]; m7Gppp-ApGm); binds ([6]; m7Gppp-ApGm).
“AGGGGAAGCGGGCAUGCGGCCAGCCA [cap0(A) RNA-biotin]” was tested, and the binding signal (log2 ratio vs mock) ([2]; m7Gppp-A) was 2.71, the binding result ([3]; m7Gppp-A) was “binds” and the binding result ([4]; m7Gppp-A, protein in an extract) was “binds”. “AGGGGAAGCGGGCAUGCGGCCAGCCA [cap0(A) RNA-biotin]”: binds ([5]; m7Gppp-A); binds ([6]; m7Gppp-A).
“AGGGGAAGCGGGCAUGCGGCCAGCCA [cap2(m6A) RNA-biotin]”: binds more weakly ([4]; synergistic reduction, m7Gppp-m6AmpGm, protein in an …).
“AGGGGAAGCGGGCAUGCGGCCAGCCA [cap2-1(m6A) RNA-biotin]”: binds ([3]; m7Gppp-m6ApGm); binds more weakly ([4]; similar to cap1(m6A), m7Gppp-m6ApGm, protein in an extract).
In the case of “AGGGGAAGCGGGCAUGCGGCCAGCCA [cap2(A) RNA-biotin]”, the binding signal (log2 ratio vs mock) ([2]; m7Gppp-AmpGm) was 0.799, the binding result ([4]; m7Gppp-AmpGm, protein in an extract) was “no binding” and the binding result ([5]; m7Gppp-AmpGm) was “binds”. “AGGGGAAGCGGGCAUGCGGCCAGCCA [cap2(A) RNA-biotin]”: binds ([6]; m7Gppp-AmpGm).
In the case of “AGGGGAAGCGGGCAUGCGGCCAGCCA [cap1(A) RNA-biotin]”, the binding signal (log2 ratio vs mock) ([2]; m7Gppp-Am, counted as no binding) was -0.644, the binding result ([3]; m7Gppp-Am) was “no binding” and the binding result ([4]; m7Gppp-Am, protein in an extract) was “binds more weakly”. “AGGGGAAGCGGGCAUGCGGCCAGCCA [cap1(A) RNA-biotin]”: binds ([5]; m7Gppp-Am); binds ([6]; m7Gppp-Am).
“AGGGGAAGCGGGCAUGCGGCCAGCCA [cap0(m6A) RNA]”: binds more weakly ([1]; m7Gppp-m6A).
“AGGGGAAGCGGGCAUGCGGCCAGCCA [cap1(m6A) RNA]”: binds more weakly ([1]; m7Gppp-m6Am).
“AGGGGAAGCGGGCAUGCGGCCAGCCA [cap1(m6A) RNA-biotin]”: no binding ([3]; m7Gppp-m6Am); binds more weakly ([4]; almost unrecognizable, m7Gppp-m6Am, protein in an extract).
“AGGGGAAGCGGGCAUGCGGCCAGCCA [cap0(m6A) RNA-biotin]”: binds ([3]; m7Gppp-m6A); binds ([4]; m7Gppp-m6A, protein in an extract).
